Data: publication PMC9348797
No constants are given. Whether binding was seen depends on the method and setting. Binding seen in cells or lysates may run through a third protein. These calls come from enrichment with a bait or labelling near it, and not all partners need be listed. Sequences can lack the tags named with a protein.

Biological target: T1, KCTD7-FLAG (endogenous KCTD7 with a knocked-in FLAG tag) (human (endogenous in HeLa)) (UniProt Q96MP8)
T1 sequence: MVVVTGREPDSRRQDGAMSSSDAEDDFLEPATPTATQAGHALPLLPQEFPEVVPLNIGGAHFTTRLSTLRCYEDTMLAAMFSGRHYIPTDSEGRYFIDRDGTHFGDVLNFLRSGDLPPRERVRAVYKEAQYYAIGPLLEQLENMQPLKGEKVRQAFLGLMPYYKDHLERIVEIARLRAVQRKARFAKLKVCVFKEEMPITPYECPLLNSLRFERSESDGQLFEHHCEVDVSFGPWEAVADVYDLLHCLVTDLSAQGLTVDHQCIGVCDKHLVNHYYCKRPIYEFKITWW
Assay: affinity purification with mass spectrometry; anti-FLAG M2 agarose on lysate of KCTD7-FLAG knock-in HeLa cells (20 mM tris-Cl pH 7.4, 100 mM NaCl, 0.2 mM EDTA, 0.5% NP-40), 4°C overnight, eluted with FLAG peptide, SDS-PAGE bands sequenced by MS

- binding: binds
B1: CLN5 (endogenous, HeLa) (protein, UniProt O75503 1-358)
chain: MAQEVDTAQGAEMRRGAGAARGRASWCWALALLWLAVVPGWSRVSGIPSRRHWPVPYKRFDFRPKPDPYCQAKYTFCPTGSPIPVMEGDDDIEVFRLQAPVWEFKYGDLLGHLKIMHDAIGFRSTLTGKNYTMEWYELFQLGNCTFPHLRPEMDAPFWCNQGAACFFEGIDDVHWKENGTLVQVATISGNMFNQMAKWVKQDNETGIYYETWNVKASPEKGAETWFDSYDCSKFVLRTFNKLAEFGAEFKNIETNYTRIFLYSGEPTYLGNETSVFGPTGNKTLGLAIKRFYYPFKPHLPTKEFLLSLLQIFDAVIVHKQFYLFYNFEYWFLPMKFPFIKITYEEIPLPIRNKTLSGL
modifications: heavily N-glycosylated (about 50 kDa, about 35 kDa after PNGase F)
